These are yes or no findings as the source states them, for the method shown. In cells and extracts the contact can be indirect. Where a sequence is shown, tags or fusion partners need not be part of it.
Target: T1, unphospho-PtsNHis (unphosphorylated PtsN with a C-terminal hexahistidine tag) (E. coli) (UniProt P69829)
T1 sequence: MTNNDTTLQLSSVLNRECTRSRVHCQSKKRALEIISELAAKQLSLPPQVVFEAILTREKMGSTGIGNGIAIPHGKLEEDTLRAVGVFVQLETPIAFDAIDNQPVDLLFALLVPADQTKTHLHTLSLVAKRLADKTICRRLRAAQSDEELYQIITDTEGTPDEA
Assay: condition: 25 μg of the purified His-tagged protein added to the lysate; pull-down; co-purification: 25 μg purified C-terminally His6-tagged protein added to DDM-solubilised lysate of cells expressing the 3x FLAG tagged protein, Ni-NTA beads, 4 °C, 2.5 h; buffer A (20 mM Tris-Cl pH 8.0, 200 mM NaCl, 10% glycerol, 5 mM BME) with 3 mM DDM; elution with 300 mM imidazole; anti-FLAG and anti-His immunoblots; only the target purified

B1: DsbB with a C-terminal 3x FLAG tag (disulfide oxidoreductase, inner membrane protein) (protein, UniProt P0A6M2 1-176)
chain: MLRFLNQCSQGRGAWLLMAFTALALELTALWFQHVMLLKPCVLCIYERCALFGVLGAALIGAIAPKTPLRYVAMVIWLYSAFRGVQLTYEHTMLQLYPSPFATCDFMVRFPEWLPLDKWVPQVFVASGDCAERQWDFLGLEMPQWLLGIFIAYLIVAVLVVISQPFKAKKRDLFGR
binding: no binding

— publication PMC11808508
